Measured data: PubChem BioAssay AID1259405 (NCATS, 2018)

Purpose: 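Knock-downs that lift recombinant protein yield in hamster ovary cells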 (primary screen)
Cell system: Chinese hamster CHO-K1 ovary cells with stable secreted eGFP expression
Knock-down reagent: single siRNA against mouse genes, 0.8 pmol siRNA per well (2 µl of 400 nM stock)
Time to read-out: 3 days
Measured: 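Per-well intracellular GFP measured by laser scanning cytometry, plus viability from ATP luminescence, each relative to plate median of non-targeting control wells, in %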
Scale: GFP, % of control: higher = more GFP per well, higher productivity; viability (ATP), % of control: higher = more viable cells (more ATP)
Call rule: 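a knock-down is called active if GFP reaches 120% or more of non-targeting control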
The whole screen tested about 50,000 reagents; shown is a random part of them. About 4,000 of them (8%) count as active. 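Mouse siRNA library applied to hamster cells; one well for each siRNA.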 Entries without a mark were called inactive. The numbers tell different reagents against one gene apart.

With knock-down of Ttc34 #1, the record shows GFP, % of control 99.8; viability (ATP), % of control 118.
Depletion of Ttc34 #2 resulted in: GFP, % of control 67.6; viability (ATP), % of control 90.7.
With knock-down of Ttc34 #3 the results were GFP, % of control 91.9; viability (ATP), % of control 72.1.
For Siae #1, the entry reads GFP, % of control 83.4; viability (ATP), % of control 78.9.
Siae #2 scored GFP, % of control 94.6; viability (ATP), % of control 78.1.
Silencing of Siae #3 came out at: GFP, % of control 60.1; viability (ATP), % of control 76.9.
Ppp2r2d #1 scored GFP, % of control 112; viability (ATP), % of control 124.
Ppp2r2d #2 showed GFP, % of control 81.5; viability (ATP), % of control 72.
After knock-down of Ppp2r2d #3 the results were GFP, % of control 85.8; viability (ATP), % of control 83.8.
Tpgs1 #1 scored GFP, % of control 97.1; viability (ATP), % of control 94.3.
Tpgs1 #2 showed GFP, % of control 128 (active); viability (ATP), % of control 57.9.
With knock-down of Tpgs1 #3 the results were GFP, % of control 65.9; viability (ATP), % of control 61.9.
Depletion of Ankar #1 came out at: GFP, % of control 119; viability (ATP), % of control 118.
Ankar #2 scored GFP, % of control 69.3; viability (ATP), % of control 43.7.
Against Ankar #3, the values are GFP, % of control 90.9; viability (ATP), % of control 93.6.

Records listed so far whose gene name starts with T or t:
Ttc34 #1 | GFP, % of control = 99.8; viability (ATP), % of control = 118
Ttc34 #2 | GFP, % of control = 67.6; viability (ATP), % of control = 90.7
Ttc34 #3 | GFP, % of control = 91.9; viability (ATP), % of control = 72.1
Tpgs1 #1 | GFP, % of control = 97.1; viability (ATP), % of control = 94.3
Tpgs1 #2 | GFP, % of control = 128 (active); viability (ATP), % of control = 57.9
Tpgs1 #3 | GFP, % of control = 65.9; viability (ATP), % of control = 61.9

The list goes on:
With knock-down of Plcd1 #1, the record shows GFP, % of control 84; viability (ATP), % of control 92.9.
Against Plcd1 #2, the values are GFP, % of control 108; viability (ATP), % of control 95.3.
With knock-down of Plcd1 #3, the record shows GFP, % of control 83; viability (ATP), % of control 74.7.
Adam8 #1 gave GFP, % of control 176 (active); viability (ATP), % of control 98.3.
Against Adam8 #2, the entry reads GFP, % of control 78.1; viability (ATP), % of control 93.8.
After knock-down of Adam8 #3, the screen gave GFP, % of control 78.5; viability (ATP), % of control 86.7.
Against Wnt8a #1, the entry reads GFP, % of control 65; viability (ATP), % of control 69.5.
Knock-down of Wnt8a #2 came out at: GFP, % of control 72.3; viability (ATP), % of control 67.9.
Against Wnt8a #3, the entry reads GFP, % of control 69.6; viability (ATP), % of control 77.2.
Knock-down of Dock4 #1 gave: GFP, % of control 101; viability (ATP), % of control 82.2.
Silencing of Dock4 #2 gave: GFP, % of control 90.1; viability (ATP), % of control 87.5.
Knock-down of Dock4 #3 resulted in: GFP, % of control 62.6; viability (ATP), % of control 67.3.
With knock-down of Or4k52 #1 the results were GFP, % of control 61.5; viability (ATP), % of control 50.9.
After knock-down of Or4k52 #2, the screen gave GFP, % of control 44.4; viability (ATP), % of control 64.4.
Silencing of Or4k52 #3 resulted in: GFP, % of control 70.6; viability (ATP), % of control 84.8.
Silencing of Nat3 #1 resulted in: GFP, % of control 89.2; viability (ATP), % of control 90.9.
After knock-down of Nat3 #2, the screen gave GFP, % of control 65.2; viability (ATP), % of control 68.4.
Nat3 #3 scored GFP, % of control 61.4; viability (ATP), % of control 74.2.
Silencing of Or11h4 #1 gave: GFP, % of control 89.3; viability (ATP), % of control 52.8.
Or11h4 #2 showed GFP, % of control 78.9; viability (ATP), % of control 92.4.
After knock-down of Or11h4 #3 the results were GFP, % of control 52.2; viability (ATP), % of control 55.8.
Psme2 #1 showed GFP, % of control 88.6; viability (ATP), % of control 54.9.
Psme2 #2 scored GFP, % of control 88.1; viability (ATP), % of control 84.2.
Against Psme2 #3 the deposit lists GFP, % of control 70.8; viability (ATP), % of control 98.6.
Silencing of Mrps18a #1 gave: GFP, % of control 127 (active); viability (ATP), % of control 89.2.
After knock-down of Mrps18a #2 the results were GFP, % of control 95.2; viability (ATP), % of control 84.6.
Mrps18a #3 showed GFP, % of control 90.2; viability (ATP), % of control 57.2.
